Laboratory results taken from patent publication EP4603105A1 (CHUGAI SEIYAKU KABUSHIKI KAISHA, priority 2022, dated 2024).

Assay: general procedure: Fmoc solid-phase peptide synthesis; CTC resin (2-chlorotrityl)
Conditions: late stage modification step

## PEPTIDE1{[MeLeu].I.[MeGly].[MeAhp-7br].[NbrPhe(4-CF3)].[MeGly].[Hph(4-CF3-35-F2)].[Hyp(3)(Tfp)].[cVal].[MeGly(cPent)].[MeAsp].[mor]}$PEPTIDE1,PEPTIDE1,1:R1-11:R3|PEPTIDE1,PEPTIDE1,4:R3-5:R3$$$V2.0
  step yield: 33%

HELM strings list residues between dots; [ac] is acetyl, [am] amide, other brackets name non-standard units.
